The text below walks through data of publication PMC9092175.

The target in the assay is plant virus-based immunosorbent nanoparticle (VIN): assembled turnip vein clearing virus (TVCV) virion of coat protein Fc-affinity ligand fusion (CP-FcAL) (turnip vein clearing virus | S. aureus) (UniProt Q88922). The assay can be described thus: co-sedimentation; affinity sedimentation: purified VIN mixed in free suspension with a pre-purified target; VIN-target complex pelleted (12,000 x g, 10 min for hIgG; 20,000 x g, 20 min for the Fc-fusions); eluted with 0.1 M glycine-HCl pH 2.5; SDS-PAGE and Western blot; both purified.

Results are given in words; binding and its absence hold for the method and conditions named.

Regarding “bovine serum albumin (BSA) (from UniProt P02769 25-607)”, the binding entry is given as “no binding”.
